PubChem BioAssay AID1224826, NIAID – 2016
This is an unselected part of about 17,000 reagents. In the full data, about 1,110 (6.6%) were called active. 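Active means lowered or raised reporter signal; replicate intensities are raw and not normalised per plate.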 Entries without a mark were called inactive. Further read-outs or replicates are left out here. No sequences are given here.

Purpose: 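Knock-downs that raise or lower Tnf reporter signal after endotoxin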 (primary screen)
System: RAW264.7 G9 macrophages from mouse bearing reporters for p65 (GFP) and the Tnf promoter (mCherry)
Knock-down reagent: siRNA pool against mouse genes, 100 nM
Time to read-out: 16 h of LPS stimulation, after 2 days of siRNA transfection
Treatment: bacterial lipopolysaccharide (Salmonella minnesota R595), 10 ng/ml
Measurement: 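Nuclear mCherry signal of the Tnf promoter reporter measured by imaging after background removal, scaled to each plate median and turned into robust z-scores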
Reading the numbers: Tnf reporter robust z-score: higher = stronger Tnf promoter reporter signal after LPS
Hit rule: 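Called active when robust z-score is at most -1.3, matching the median of the Tlr4 knock-down control, or over 3; control wells and wells with under 50 cells never active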
Calls: active = Tnf reporter clearly lowered or raised; inactive = no clear change in Tnf reporter

Col6a6 (GeneID 245026) scored Tnf reporter robust z-score -0.09; fewer than 50 cells in well enough cells in well. After knock-down of Or6z5 (GeneID 258918), the screen gave Tnf reporter robust z-score 2.41; fewer than 50 cells in well enough cells in well. 5830427D03Rik (retired record) (GeneID 76061) scored Tnf reporter robust z-score 1.08; fewer than 50 cells in well enough cells in well. For Tcta (GeneID 102791) the deposit lists Tnf reporter robust z-score -0.1; fewer than 50 cells in well enough cells in well. Depletion of Chst7 (GeneID 60322) resulted in: Tnf reporter robust z-score -0.66; fewer than 50 cells in well enough cells in well. Gng11 (GeneID 66066) gave Tnf reporter robust z-score -0.11; fewer than 50 cells in well enough cells in well.

Depletion of Hhatl (GeneID 74770) resulted in: Tnf reporter robust z-score 1.44; fewer than 50 cells in well enough cells in well. Or5v1 (GeneID 258325) scored Tnf reporter robust z-score 0.42; fewer than 50 cells in well enough cells in well. Silencing of Slc25a24 (GeneID 229731) resulted in: Tnf reporter robust z-score 1.29; fewer than 50 cells in well enough cells in well. Knock-down of Galnt12 (GeneID 230145) gave: Tnf reporter robust z-score -0.87; fewer than 50 cells in well enough cells in well. Ankrd49 (GeneID 56503) gave Tnf reporter robust z-score 0.72; fewer than 50 cells in well enough cells in well. After knock-down of Dmrta1 (GeneID 242523), the screen gave Tnf reporter robust z-score -0.88; fewer than 50 cells in well enough cells in well.

Silencing of Parp2 (GeneID 11546) resulted in: Tnf reporter robust z-score 0.12; fewer than 50 cells in well enough cells in well. Against Cpz (GeneID 242939), the entry reads Tnf reporter robust z-score -0.34; fewer than 50 cells in well enough cells in well. Knock-down of Sema3b (GeneID 20347) came out at: Tnf reporter robust z-score -1.27; fewer than 50 cells in well enough cells in well. After knock-down of Zfp386 (GeneID 56220), the record shows Tnf reporter robust z-score 1.75; fewer than 50 cells in well enough cells in well. Rbm11 (GeneID 224344) gave Tnf reporter robust z-score 0.26; fewer than 50 cells in well enough cells in well. After knock-down of Nek3 (GeneID 23954) the results were Tnf reporter robust z-score 0.18; fewer than 50 cells in well enough cells in well.

Against Glo1 (GeneID 109801), the values are Tnf reporter robust z-score 0.41; fewer than 50 cells in well enough cells in well. With knock-down of Mterf1a (GeneID 545725) the results were Tnf reporter robust z-score -0.04; fewer than 50 cells in well enough cells in well. Depletion of H1f6 (GeneID 107970) came out at: Tnf reporter robust z-score 0.52; fewer than 50 cells in well enough cells in well.

2 entries from above, limited to “fewer than 50 cells in well”.
Hhatl (GeneID 74770) = enough cells in well
Or5v1 (GeneID 258325) = enough cells in well
